{"source": "PubChem BioAssay AID540256", "about": "(National Center for Advancing Translational Sciences (NCATS), 2011)", "note": "Hit rate of the full screen: of about 300,000 compounds, about 3,700 (1.2%) were called active. Inconclusive means that the source gave no clear call. Such entries were picked first, then a sample of the others. Calls follow the shape of the full dose curve; tested in HEK293 cells. A potency beside an inconclusive call is a rough fit, not a confirmed value. % is scaled to controls: 0 for no effect and ±100 for the full control effect; potency is read from the fitted curve at half-maximal effect."}
{"experiment": "qHTS for Inhibitors of binding or entry into cells for Lassa Virus; also: nearly all actives have a fitted effect of over 50% in size", "conditions": "Lassa virus pseudotype entry inhibition, cell reporter; activity change, negative = inhibition: at 37.9 µM (top of the series) unless noted"}
{"smiles": "CCCn1c(SCc2nc3ccccc3s2)n[nH]c1=O", "activity change, negative = inhibition": "inactive: -27.2%"}
{"smiles": "COc1ccc(N2CC(C(=O)NCc3n[nH]c(=O)c4ccccc34)CC2=O)cc1", "note": "(stereo not given)", "activity change, negative = inhibition": "inactive: 13.7%"}
{"smiles": "COc1cccc(CN2CCNC(=O)C2CC(=O)N2CCOc3ccccc3C2)c1OC", "note": "(stereo not given)", "activity change, negative = inhibition": "inactive: 0.152%"}
{"smiles": "O=C(COC(=O)c1cccc(-n2cnnn2)c1)c1ccc(F)cc1", "Potency": "inconclusive: 0.708 µM [activator, partial curve, poor fit]"}
{"smiles": "CN1CCC(Oc2ccc(Sc3ccccc3)cc2)CC1", "Potency": "inconclusive: 14.1 µM [inhibitor, single point]"}
{"smiles": "CCOC(=O)c1cnc2c(-c3ccccc3)cnn2c1C", "activity change, negative = inhibition": "inactive: 11.6% [at 46.1 µM]"}
{"smiles": "N/C(=N\\O)c1cccc(CS(=O)(=O)c2ccccn2)c1", "Potency": "inconclusive: 0.447 µM [inhibitor, partial curve, poor fit]"}
{"smiles": "COc1ccc(C2CC(c3ccccc3)=NN2S(=O)(=O)c2ccccc2)c(OC)c1", "note": "(stereo not given)", "activity change, negative = inhibition": "inactive: 8.5%"}
{"smiles": "CCOC(=O)CNC(=O)C1c2cc(OC)c(OC)cc2C(=O)N(C)C1c1ccccc1F", "note": "(stereo not given)", "activity change, negative = inhibition": "inactive: -0.0535%"}
{"smiles": "O=C(c1ccc(Br)cc1)N(Cc1nc2ccccc2c(=O)[nH]1)C1CCCC1", "Potency": "inconclusive: 35.5 µM [inhibitor, single point]"}
{"smiles": "O=C(CCSCCc1ccccn1)Nc1ccccn1", "activity change, negative = inhibition": "inactive: 17.7%"}
{"smiles": "COC(=O)c1c(NC(=O)Cc2cccs2)sc(C(=O)N2CCCCC2)c1C", "Potency": "inconclusive: 0.73 µM [inhibitor, full curve, poor fit]"}
{"smiles": "COc1cc(/C(C)=N\\NC(=O)CSc2nc3ccccc3n2C)ccc1O", "Potency": "inconclusive: 35.5 µM [inhibitor, single point]"}
{"smiles": "C#CCn1c(=O)c2c(ncn2C)n(C)c1=O", "Potency": "inconclusive: 6.51 µM [activator, single point]"}
{"smiles": "COc1ccc(NC(=O)N2c3ccccc3CC2C)cc1OC", "note": "(stereo not given)", "activity change, negative = inhibition": "inactive: 10.8%"}
{"smiles": "Cc1c(C(=O)NCc2ccccc2)oc2ccc(S(=O)(=O)N3CCC4(CC3)OCCO4)cc12", "Potency": "inconclusive: 29.1 µM [inhibitor, single point]"}
{"smiles": "COc1ccc(C2NC(=O)NC(C)=C2C(=O)OC2CCCC(C)C2)cc1", "note": "(stereo not given)", "Potency": "inconclusive: 6.31 µM [inhibitor, single point]"}
{"smiles": "COc1ccc(C)cc1S(=O)(=O)N(CC(=O)Nc1cccc([N+](=O)[O-])c1)c1cc(C)cc(C)c1", "Potency": "inconclusive: 3.26 µM [activator, partial curve, poor fit]"}
{"smiles": "COc1ccc(CN2C(=O)c3ccccc3C2=O)cc1C(=O)Nc1ccccc1N1CCOCC1", "Potency": "inconclusive: 2.51 µM [inhibitor, full curve, poor fit]"}
{"smiles": "COc1ccc(Nc2oc(-c3cccs3)nc2C#N)cc1", "Potency": "inconclusive: 1 µM [activator, full curve, poor fit]"}
